Measurements taken from PubChem BioAssay AID1688 (National Center for Advancing Translational Sciences (NCATS), 2009).
Out of some 220,000 compounds screened, about 2,400 (1.1%) were called active. The shares of active, inactive and inconclusive entries below differ from those in the screen. Calls follow the shape of the dose curve; as a rule, active = well fitted inhibition curve with a large enough effect; inconclusive = small, poorly fitted or top-dose-only effect, or effect the other way; inactive = no such curve, though single readings can be large or run the other way. Potencies of inconclusive entries are doubtful fits and often do not repeat.

Test: qHTS Multiplex Assay to Identify Dual Action Probes in a Cell Model of Huntington: Aggregate Formation (GFP); also: nearly all actives have a fitted effect of over 60% in size
Conditions: PC12 HttQ103-GFP aggregates, Acumen cytometry, 40 h; activity change, negative = inhibition: at 46.1 µM (top of the series) unless noted
How it was run: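 Steps: seed 1500 PC12 HTTQ103-GFP cells/well; add tebufenozide, 100 nM final; add compound titration; add ATPLite reagent; quantify GFP aggregates by laser scanning cytometry.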
% is scaled to controls: 0 for no effect and ±100 for the full control effect; potency is read from the fitted curve at half-maximal effect.

Question: For c1ccc(-c2nc(NCc3ccco3)c3ccccc3n2)cc1, which “activity change, negative = inhibition” value is on record?
Answer: The value was inactive: 11.2%.

Question: For O=C(CCSCCC(=O)NCC1CCCO1)NCC1CCCO1 (stereo not given), which “activity change, negative = inhibition” value is on record?
Answer: The value was inactive: -14.8%.

Question: Which Potency does the source give for COc1ccc(C2CC(c3ccc(Cl)cc3)Nc3nc(NC(=O)c4ccco4)nn32)cc1 (stereo not given) here?
Answer: Its Potency is inconclusive: 8.91 µM [inhibitor, partial curve, poor fit].

Question: With COc1ccc(N(CC(=O)NCCC2=CCCCC2)S(=O)(=O)c2ccccc2)cc1OC as the compound, how does the Potency read?
Answer: The Potency was inconclusive: 22.4 µM [activator, partial curve, poor fit].

Question: For COc1ccc(Cl)cc1NC(=S)N(Cc1ccc(C(=O)O)cc1)Cc1ccc(OC)c(OC)c1, which “activity change, negative = inhibition” value is on record?
Answer: The value was inactive: -8.31%.

Question: Which Potency does the source give for CC1=C(C(=O)OCc2ccc3c(c2)OCO3)C(c2ccc(F)cc2)NC(=O)N1 (stereo not given) here?
Answer: The Potency was active: 1.41 µM.

Question: For COc1ccc(-n2c(-c3ccccc3)nnc2-c2ccc(Cl)cc2)cc1, which “activity change, negative = inhibition” value is on record?
Answer: Its value is inactive: 12.7%.

Question: For CCC(C)C(=O)Nc1nc(C)c(-c2csc(Nc3ccc(Cl)cc3)n2)s1 (stereo not given), which Potency is on record?
Answer: Its Potency is inconclusive: 35.5 µM [inhibitor, single point].

Question: With O=C(CN(c1ccc(F)cc1)S(=O)(=O)c1ccc2c(c1)OCCO2)NCc1cccnc1 as the compound, how does the Potency read?
Answer: The Potency was inconclusive: 0.562 µM [inhibitor, full curve, poor fit].

Question: For O=C(/C=C/c1ccc([N+](=O)[O-])cc1)NCc1ccco1, which “activity change, negative = inhibition” value is on record?
Answer: The value was inactive: 0.313%.

Question: For O=C1Nc2ccccc2S/C1=C/c1cccs1, which Potency is on record?
Answer: The Potency was inconclusive: 3.55 µM [activator, single point].

Question: For C(#CCN1CCC(Cc2ccccc2)CC1)COCCOCc1ccccc1, which Potency is on record?
Answer: The Potency was inconclusive: 35.5 µM [inhibitor, single point].

Question: Which Potency does the source give for Cc1ccc(CN2CCc3c(OCc4ccc(F)cc4)cccc3C2=O)cc1 here?
Answer: Its Potency is inconclusive: 17.8 µM [inhibitor, partial curve].

Question: Which Potency does the source give for Cc1cccc(C)c1NC(=O)c1c(-c2ccccc2)noc1C here?
Answer: Its Potency is inconclusive: 35.5 µM [activator, single point].

Question: With CC(C)Cc1cc(CN2CCCC(CO)(Cc3cccc(Cl)c3)C2)[nH]n1 (stereo not given) as the compound, how does the activity change, negative = inhibition read?
Answer: Its activity change, negative = inhibition is inactive: 1.63% [at 9.22 µM].

Question: Which “activity change, negative = inhibition” value does the source give for COc1ccc(S(=O)(=O)N2CCOCC2)cc1NC(=O)CCc1c[nH]c2ccccc12 here?
Answer: Its value is inactive: 21%.

Question: With CCOC(=O)N1CCN(C(=O)CCC(=O)N2CCOc3ccc(C)cc32)CC1 as the compound, how does the Potency read?
Answer: The Potency was inconclusive: 35.5 µM [inhibitor, single point].

Question: With CCC(C)c1ccc(NC(=S)NCCn2cc(Cl)cn2)cc1 (stereo not given) as the compound, how does the Potency read?
Answer: The Potency was inconclusive: 35.5 µM [inhibitor, single point].

Question: Which Potency does the source give for C[C@]1(C(=O)NCCCNc2ncc(C(F)(F)F)cc2Cl)C=C[C@@H](Cc2ccccc2)N1C(=O)c1ccccc1 here?
Answer: The Potency was inconclusive: 35.5 µM [inhibitor, single point].

Question: Which “activity change, negative = inhibition” value does the source give for C[C@@H](C(=O)Nc1ccc2ccccc2c1)[C@@H]1C[C@@]1(C)[C@@H](NC(=O)c1cnccn1)c1ccccc1 here?
Answer: Its value is inactive: 16.9%.

Question: For CC[C@@H]1/C=C(\C)C[C@H](C)C[C@H](OC)[C@H]2O[C@@](O)(C(=O)C(=O)N3CCCC[C@H]3C(=O)O[C@H](/C(C)=C/[C@@H]3CC[C@H](Cl)[C@H](OC)C3)[C@H](C)[C@@H](O)CC1=O)[C@H](C)C[C@@H]2OC, which “activity change, negative = inhibition” value is on record?
Answer: The value was inactive: -8.23%.

Question: For C[C@H](NC(=O)c1nc[nH]c1C(=O)NCCCCCNC(=O)OC(C)(C)C)C(=O)OC(C)(C)C, which activity change, negative = inhibition is on record?
Answer: Its activity change, negative = inhibition is inactive: -14.8% [at 9.22 µM].

Question: With Cc1ccc(OCc2ccc(C(=O)Nc3c(C)nn(Cc4c(F)c(F)c(F)c(F)c4F)c3C)o2)c([N+](=O)[O-])c1 as the compound, how does the Potency read?
Answer: Its Potency is inconclusive: 35.5 µM [inhibitor, single point].

Question: For O=S(=O)(c1ccc2ccccc2c1)N1CCN(C(=S)Nc2ccc(F)cc2)CC1, which Potency is on record?
Answer: The Potency was inconclusive: 25.1 µM [inhibitor, single point].

Question: With CCn1c2ccccc2c2nnc(SCCCn3c(=O)[nH]c4ccccc43)nc21 as the compound, how does the Potency read?
Answer: The Potency was inconclusive: 12.6 µM [inhibitor, single point].

Question: With Cc1cccn2c(=O)c3cc(C(=O)NCc4ccco4)c(=N)n(CCOCCO)c3nc12 as the compound, how does the Potency read?
Answer: Its Potency is active: 2.82 µM.

Question: Which “activity change, negative = inhibition” value does the source give for CCOC(=O)C(NC(=O)CC)(N1CCc2ccccc2C1)C(F)(F)F (stereo not given) here?
Answer: Its value is inactive: 2.62%.

Question: For O=C(CNC(=S)N(Cc1ccccc1)Cc1ccccc1F)NCc1ccccc1, which Potency is on record?
Answer: The Potency was inconclusive: 35.5 µM [inhibitor, single point].

Question: With CCN=C1SC(C(N)=O)CC(=O)N1CC (stereo not given) as the compound, how does the Potency read?
Answer: The Potency was inconclusive: 0.562 µM [activator, full curve].

Question: For COc1ccc(S(=O)(=O)C(C#N)c2nc3ccccc3nc2N2CCCC(C)C2)cc1 (stereo not given), which Potency is on record?
Answer: Its Potency is inconclusive: 25.1 µM [inhibitor, single point].

Question: With CCCCC(C(=O)NC1CCCC1)N(Cc1ccco1)C(=O)Cn1nnc(-c2ccc(F)cc2)n1 (stereo not given) as the compound, how does the Potency read?
Answer: Its Potency is inconclusive: 35.5 µM [inhibitor, single point].

Question: With O=c1cc(N2CCCCC2)c(-c2ccccc2)nn1Cc1cccc(F)c1 as the compound, how does the Potency read?
Answer: The Potency was inconclusive: 35.5 µM [inhibitor, single point].

Question: Which Potency does the source give for CC(C)CN(CC(C)C)c1ccc(/C=N/n2cnnc2)cc1[N+](=O)[O-] here?
Answer: Its Potency is inconclusive: 1.12 µM [inhibitor, single point].

Question: Which Potency does the source give for Cc1nc2ccc(NS(=O)(=O)c3ccc(C)c(C)c3)cc2s1 here?
Answer: Its Potency is inconclusive: 5.62 µM [inhibitor, single point].

Question: For CC(C)C(NC(=O)c1ccccc1F)C(=O)Nc1ccc2c(c1)OCO2 (stereo not given), which Potency is on record?
Answer: Its Potency is inconclusive: 3.16 µM [activator, single point].

Question: For O=C(Nc1ncc2c(n1)-c1ccccc1CC2)c1cccs1, which Potency is on record?
Answer: The Potency was inconclusive: 7.94 µM [inhibitor, partial curve].

Question: With O=C(O)CC(NC(=O)Cc1ccccc1)c1cc([N+](=O)[O-])ccc1Cl (stereo not given) as the compound, how does the “activity change, negative = inhibition” value read?
Answer: Its value is inactive: -5.08%.

Question: With N#C/C(=C\Nc1ccc2c(c1)OCCO2)c1nc2ccccc2[nH]1 as the compound, how does the Potency read?
Answer: Its Potency is inconclusive: 35.5 µM [inhibitor, single point].

Question: Which Potency does the source give for O=C(O)C1CCCCC1C(=O)Nc1ccc(Cl)cc1 (stereo not given) here?
Answer: The Potency was inconclusive: 5.01 µM [activator, partial curve].

Question: With CN(C)c1ccc(C(=O)Nc2nnc(-c3ccc(Cl)cc3)o2)cc1 as the compound, how does the Potency read?
Answer: Its Potency is inconclusive: 11.2 µM [inhibitor, partial curve, poor fit].

Question: Which Potency does the source give for O=C(NC1CCCCCC1)c1cc(S(=O)(=O)N2CCOCC2)ccc1N1CCCCC1 here?
Answer: Its Potency is inconclusive: 35.5 µM [inhibitor, single point].

Question: Which Potency does the source give for CCN1CCN(C(=S)c2ccc(OCC(=O)NCc3ccccc3)cc2)CC1 here?
Answer: Its Potency is inconclusive: 0.891 µM [inhibitor, single point].

Question: Which Potency does the source give for CCN1C(=O)CS/C1=N\c1nccs1 here?
Answer: The Potency was inconclusive: 0.562 µM [activator, full curve, poor fit].

Question: Which Potency does the source give for CN(C)S(=O)(=O)c1cc(NC(=O)CSc2ncc(C(F)(F)F)cc2Cl)ccc1Cl here?
Answer: Its Potency is inconclusive: 35.5 µM [inhibitor, single point].

Question: Which “activity change, negative = inhibition” value does the source give for CCOC(=O)C1CCCN(C2CC(=O)N(c3ccc(C)cc3)C2=O)C1 (stereo not given) here?
Answer: The value was inactive: -1.2%.

Question: Which “activity change, negative = inhibition” value does the source give for COc1ccc(C(=O)C(OC(=O)CNC(=O)c2ccco2)c2ccccc2)cc1 (stereo not given) here?
Answer: The value was inactive: -9.14%.

Question: For O=C(NN1CCOCC1)c1cc(S(=O)(=O)Nc2cccc(C(F)(F)F)c2)ccc1Cl, which Potency is on record?
Answer: The Potency was inconclusive: 5.62 µM [inhibitor, partial curve].

Question: For CC(C)(C)c1ccc(N/N=C(\C#N)S(=O)(=O)C(C)(C)C)cc1, which Potency is on record?
Answer: The Potency was inconclusive: 12.6 µM [inhibitor, single point].

Question: Which Potency does the source give for Cc1cc(SCC(=O)N/N=C/c2ccc(O)c(O)c2)c(C)cc1Br here?
Answer: Its Potency is inconclusive: 35.5 µM [activator, partial curve].

Question: For CCc1ccccc1N1CSC2=C(C#N)C(c3cc(OC)c(OC)cc3OC)CC(=O)N2C1 (stereo not given), which Potency is on record?
Answer: Its Potency is inconclusive: 10 µM [activator, single point].

Question: Which “activity change, negative = inhibition” value does the source give for CCCCNC(=O)/C(C#N)=C/c1ccc2c(c1)OCCO2 here?
Answer: The value was inactive: 1.85%.

Question: For COc1ccc(-n2c(-c3ccc(Br)cc3)c[n+]3c2CCc2ccccc2-3)cc1, which Potency is on record?
Answer: Its Potency is active: 12.6 µM.

Question: For Cc1cc(=O)[nH]c2c(N=Nc3ccc(O)cc3)c(N)nn12, which activity change, negative = inhibition is on record?
Answer: Its activity change, negative = inhibition is inactive: -8.03% [at 9.22 µM].

Question: Which Potency does the source give for O=C(COc1cccc2c1CCN(Cc1ccc(Br)cc1)C2=O)NCc1ccco1 here?
Answer: Its Potency is inconclusive: 11.2 µM [inhibitor, partial curve].

Question: For O=c1c2cn[nH]c2nc(SCc2c(F)cccc2F)n1-c1ccc(Cl)cc1, which Potency is on record?
Answer: Its Potency is inconclusive: 35.5 µM [inhibitor, single point].

Question: With O=C(CSc1ccc(C(F)(F)F)cc1[N+](=O)[O-])Nc1ccc2ccccc2c1 as the compound, how does the Potency read?
Answer: The Potency was inconclusive: 0.562 µM [activator, full curve, poor fit].

Question: Which Potency does the source give for O=C(c1ccco1)N1CCN(C(=O)C(Sc2ccccc2)c2ccccc2)CC1 (stereo not given) here?
Answer: Its Potency is active: 10 µM.

Question: With CCOc1ccccc1NC(=O)c1cc(Cl)ccc1NC(=O)c1ccco1 as the compound, how does the Potency read?
Answer: Its Potency is inconclusive: 5.62 µM [inhibitor, single point].

Question: Which Potency does the source give for CC(=O)SC(C[N+](=O)[O-])c1cn(C(C)=O)c2ccccc12 (stereo not given) here?
Answer: The Potency was inconclusive: 35.5 µM [inhibitor, single point].

Question: For CC(C)(C)c1cc(C(F)(F)F)nc(SCCCNC(=O)c2ccco2)n1, which Potency is on record?
Answer: The Potency was inconclusive: 14.1 µM [inhibitor, single point].

Question: Which Potency does the source give for O=C(Nc1nc2ccc(SC(F)F)cc2s1)c1ccc(NS(=O)(=O)c2ccc(F)c(F)c2)cc1 here?
Answer: The Potency was inconclusive: 35.5 µM [inhibitor, single point].

Question: For COC1C(OC(=O)/C=C/C=C/C=C/C=C/C(=O)O)CCC2(CO2)C1C1(C)OC1CC=C(C)C (stereo not given), which “activity change, negative = inhibition” value is on record?
Answer: Its value is inactive: 24.1%.

Question: With CN1\C(=C/C=C/C=C/C=[N+](C)C)C(C)(C)c2ccccc21 as the compound, how does the Potency read?
Answer: The Potency was active: 10 µM.

Question: For COC(=O)c1cc(C)sc1NC(=O)C1CC(=O)NN1Cc1ccccc1 (stereo not given), which “activity change, negative = inhibition” value is on record?
Answer: The value was inactive: 18.9%.

Question: With CCCCOc1ccc(S(=O)(=O)n2c(C)nc3ccccc32)cc1 as the compound, how does the Potency read?
Answer: The Potency was inconclusive: 11.2 µM [inhibitor, partial curve].
